{"source": "paper PMC7395821", "about": "(Antiviral Research, 2020)", "key": {"Cytotoxicity assay": {"assay": "Cytotoxicity assay", "type": "cell-based", "conditions": "human, Huh7 cells"}, "WT-JEV": {"system": "WT-JEV", "assay": "Antiviral assay of WT-JEV in Huh7 cells, viral titer by plaque assay"}}}
{"smiles": "CCCCCCCCCCCCCCCC[n+]1ccccc1", "note": "[cetylpyridinium chlorid, cetylpyridinium chloride]", "values": [{"measurement": "CC50 at 48 h", "setting": "Cytotoxicity assay", "value": 7.2, "unit": "µM"}, {"measurement": "SI (selective index, ratio of CC50 to EC50)", "setting": "WT-JEV; Huh7 cells, CC50/EC50", "value": "> 10"}, {"measurement": "EC50", "setting": "WT-JEV; Japanese encephalitis virus, Huh-7, read-out: EC50 (50% reduction of viral titer)", "value": 0.455, "unit": "µM"}]}
